Numbering of substitutions follows the chain as printed. These are yes or no findings as the source states them, for the method shown. Some results given as binding are weak or reduced against the parent protein; the word gives no strength. One block for each binder: values may come before it.
How the values were obtained:
[1] = biological target: recombinant cynomolgus PD-L1-FLAG-HIS (cynomolgus) (UniProt G7PSE7); assay: ELISA; plate coated with recombinant cynomolgus PD-L1-FLAG-HIS (legend of FIG. 9)
[2] = biological target: recombinant cynomolgus PD-L1-FLAG-HIS (cynomolgus) (UniProt G7PSE7); assay: ELISA; plate coated with recombinant cynomolgus PD-L1-FLAG-HIS; hybridoma supernatants, anti-rat IgG Fc-HRP detection

Chains of the proteins cited; added tags and fusions are not shown. Lines headed by an entry give the natural chain unless they say otherwise; changes in a name come on top. A line that says so, or that is headed by a name, gives the form on record, which may keep a tag or linker.
recombinant cynomolgus PD-L1-FLAG-HIS (G7PSE7, form named): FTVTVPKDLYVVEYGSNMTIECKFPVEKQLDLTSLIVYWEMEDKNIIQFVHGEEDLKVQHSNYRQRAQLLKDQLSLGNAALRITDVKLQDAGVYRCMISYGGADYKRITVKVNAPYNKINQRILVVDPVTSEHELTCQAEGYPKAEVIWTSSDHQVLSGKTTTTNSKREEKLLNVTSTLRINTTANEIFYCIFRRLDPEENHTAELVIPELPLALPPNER

B3: 8B1 (antibody, V domains shown)
VH: EVRLVESGGGLVQPGGSLRLSCAASGDIISTHWMSWVRQAPGKGLEWVANIKQDGSEKYYVDSVKGRFTISRDNAKNSLYLQMNTLRVEDTAIYYCTRDRPVAGASALWGQGTLVTVSS
VL: DIQMTQSPSTLSASVGDRVTITCRASQSISGWLAWYQQKPGKAPKLLIYKASSLESGVPLRFSGSGSGTEFTLTISSLQPDDFATYYCQQYYGSSRTFGQGTNVEIK
- binding [1]: binds
- binding [2]: binds

B5: 3B6 (antibody, V domains shown)
VH: B3 VH with R3Q, D27G, I28T, I29T, H32Y, Y80N, T85S, T97A
VL: B3 VL with L60S
- binding [1]: binds
- binding [2]: binds

Further lines, results first:

- binding [1]: binds
- binding [2]: binds
B1: 1B3 (antibody, V domains shown)
VH: B3 VH with R3Q, D27G, I28T, H32S, T85S, I93M, T97A
VL: B3 VL with L60S

- binding [1]: binds
- binding [2]: binds
B2: 9H9 (antibody, V domains shown)
VH: B3 VH with R3Q, D27G, H32Y, T85S, I93M, T97A
VL: B3 VL with L60S

- binding [1]: binds
- binding [2]: binds
B4: 7H7 (antibody, V domains shown)
VH: B3 VH with R3Q, D27G, I28T, H32S, T85S, T97A
VL: B3 VL with P40Q, L60S

- binding [1]: binds
- binding [2]: binds
B6: 4A3 (antibody, V domains shown)
VH: B3 VH with R3Q, D27G, T31S, H32S, N77D, S78L, T85S, I93L, T97A
VL: B3 VL with L60S
